Structures can show the parent of a compound that is named as a salt. This is one part of the list. Hit calls seldom repeat between salt and free forms of one compound.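 Kinases, fused to nanoluciferase, were expressed in K562 cells; luminescence was measured every 4 h from 2 to 18 h as percent of control (DMSO = 100%, positive control = 0%). A time point is decreased if signal falls significantly (2 sigma). Hits were called by the authors by a rule that is not shown; the count of time points alone does not decide it.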
biological target: RET_M918T (clone: RET_mut) (UniProt P07949); assay: kinase-Nluc reporter destabilization hit call (1 = scored as downregulated) (binary); higher = compound decreases kinase abundance; settings: K562; 2-18 h

Protein sequences, listed by entry. Tags and fused reporters are not part of them.
UniProt P07949, whole entry M918T, looked up: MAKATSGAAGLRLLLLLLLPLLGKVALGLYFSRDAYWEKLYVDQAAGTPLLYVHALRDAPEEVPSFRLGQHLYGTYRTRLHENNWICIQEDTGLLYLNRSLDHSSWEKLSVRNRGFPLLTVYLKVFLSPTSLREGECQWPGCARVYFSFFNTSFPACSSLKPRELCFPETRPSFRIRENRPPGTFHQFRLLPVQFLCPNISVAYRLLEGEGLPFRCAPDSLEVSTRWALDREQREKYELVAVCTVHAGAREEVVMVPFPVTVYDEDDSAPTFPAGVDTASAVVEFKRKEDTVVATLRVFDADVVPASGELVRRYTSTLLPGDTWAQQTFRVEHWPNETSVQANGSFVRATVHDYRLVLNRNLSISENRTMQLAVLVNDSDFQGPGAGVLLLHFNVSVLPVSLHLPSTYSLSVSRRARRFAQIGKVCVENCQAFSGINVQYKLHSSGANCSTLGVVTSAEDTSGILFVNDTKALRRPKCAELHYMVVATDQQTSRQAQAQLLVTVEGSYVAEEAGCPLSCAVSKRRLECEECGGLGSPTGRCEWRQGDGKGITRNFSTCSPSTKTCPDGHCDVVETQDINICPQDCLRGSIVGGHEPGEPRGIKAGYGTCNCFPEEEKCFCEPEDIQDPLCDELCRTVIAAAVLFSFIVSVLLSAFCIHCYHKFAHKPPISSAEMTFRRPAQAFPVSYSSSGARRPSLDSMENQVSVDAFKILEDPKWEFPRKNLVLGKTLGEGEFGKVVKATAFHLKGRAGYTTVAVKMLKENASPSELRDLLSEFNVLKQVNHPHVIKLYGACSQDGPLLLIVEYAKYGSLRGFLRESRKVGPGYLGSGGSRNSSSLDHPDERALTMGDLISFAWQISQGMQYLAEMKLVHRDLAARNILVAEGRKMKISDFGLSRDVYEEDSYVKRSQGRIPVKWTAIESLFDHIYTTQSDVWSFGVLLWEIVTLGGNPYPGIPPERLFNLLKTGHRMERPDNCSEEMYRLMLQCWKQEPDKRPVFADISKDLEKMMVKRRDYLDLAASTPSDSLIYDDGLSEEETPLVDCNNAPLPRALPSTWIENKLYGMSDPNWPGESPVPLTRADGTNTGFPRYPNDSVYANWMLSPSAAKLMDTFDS

kinase-Nluc reporter destabilization hit call, inactive:
O=C(CSC1=NCCN1)NC1CCCCCC1 [ICCB-19 (hydrochloride)] (2.5 µM) 0
CCCS(=O)(=O)Nc1ccc(F)c(C(=O)c2c[nH]c3ncc(-c4ccc(Cl)cc4)cc23)c1F [Vemurafenib] (10 µM) 0
Cc1ccc(OCCSc2ncccn2)c(Br)c1 [ZLN024 (hydrochloride)] (10 µM) 0
Nc1ncnc2c1c(-c1ccc(Oc3ccccc3)cc1)nn2C1CCCC1 (2.5 µM) 0
COc1ncc(Cl)cc1S(=O)(=O)Nc1ccc(F)c(C#Cc2cnc(N)nc2)c1F (2.5 µM) 0
Cc1ccc(CNc2ncnc3ccc(-c4ccc(CO)o4)cc23)o1 (10 µM) 0
NC(=O)c1nnc(N[C@@H]2CCCC[C@@H]2N)nc1Nc1cccc2cc[nH]c12 (10 µM) 0
CNc1nc(Nc2ccc(C(=O)N3CCOCC3)cc2OC)nc2[nH]cc(Cl)c12 (2.5 µM) 0
CCNc1nc(Nc2cc(F)c(C(=O)N3CCOCC3)cc2OC)ncc1C(F)(F)F [GNE-7915 (tosylate)] (10 µM) 0
CCN1CCN(Cc2ccc(Nc3ncc(F)c(-c4cc(F)c5nc(C)n(C(C)C)c5c4)n3)nc2)CC1 [Abemaciclib] (2 µM) 0
COCCNc1nc2ccc(C#CC3(O)CCCCC3)cc2n1-c1ccnc(N)n1 (10 µM) 0
OCCn1cc(-c2ccc3c(c2)CC/C3=N\O)c(-c2ccncc2)n1 (10 µM) 0
O=C1N[C@@H](Cc2c[nH]c3ccccc23)C(=O)N2CCC[C@@H]12 [Brevianamide F] (10 µM) 0
Cn1nccc1Nc1nccc(-c2ccn([C@H](CO)c3ccc(Cl)c(F)c3)c(=O)c2)n1 [Ravoxertinib] (10 µM) 0
O=C(NCCN1CCOCC1)c1cc2c(Oc3ccc(NC(=O)C4(C(=O)Nc5ccc(F)cc5)CC4)cc3)ccnc2[nH]1 [Tyrosine kinase inhibitor] (10 µM) 0
COc1cc2c(N3CCN(C(=O)Nc4ccc(OC(C)C)cc4)CC3)ncnc2cc1OCCCN1CCCCC1 [Tandutinib (hydrochloride)] (10 µM) 0
COc1cc(/C=C/C(=O)NCC(O)c2ccc(O)cc2)ccc1O (stereo unspecified) [N-Feruloyloctopamine] (2.5 µM) 0
COc1cc2nccc(Oc3ccc(NC(=O)NC4CC4)c(Cl)c3)c2cc1C(N)=O [Lenvatinib (mesylate)] (10 µM) 0
CN1CCN(c2cccc(Nc3nc4c(-c5ccc(S(C)(=O)=O)cc5)cccn4n3)c2)CC1 (10 µM) 0
C=C(CC[C@@H](C(=O)O)[C@H]1[C@H](O)C[C@@]2(C)C3=C(CC[C@]12C)[C@@]1(C)CC[C@H](OC(C)=O)C(C)(C)[C@@H]1CC3)C(C)C [Pachymic acid] (10 µM) 0
O=c1[nH]c(=O)n([C@@H]2O[C@H](CO)[C@@H](O)[C@@H]2O)cc1/C=C/Br [Sorivudine] (10 µM) 0
NC(=O)c1ccc(-c2nc(-c3ccc4c(c3)OCCO4)c(-c3ccccn3)[nH]2)cc1 (10 µM) 0
CC#CC(=O)Nc1ccc2ncnc(Nc3cccc(Br)c3)c2c1 (10 µM) 0
CCc1c(C(=O)NNC(=O)C(O)c2cc(F)cc(F)c2)ccc(O)c1C (stereo unspecified) (10 µM) 0
CC(=O)c1c(C)cc2cccc(O)c2c1O [Nepodin] (10 µM) 0
Cc1c(-c2c(F)cc(C(N)=O)c3[nH]c4c(c23)CC[C@H](C(C)(C)O)C4)cccc1-n1c(=O)c2cccc(F)c2n(C)c1=O (2.5 µM) 0
CCc1cc2c(cc1N1CCC(N3CCOCC3)CC1)C(C)(C)c1[nH]c3cc(C#N)ccc3c1C2=O [Alectinib] (10 µM) 0
FC(F)c1nc2ccccc2n1-c1nc(N2CCOCC2)nc(N2CCOCC2)n1 (2 µM) 0
FC(F)(c1ccc2ncccc2c1)c1nnc2ccc(-c3ccncc3)nn12 (10 µM) 0
Cn1cc(-c2cnn3c(N)c(Br)c([C@@H]4CCCNC4)nc23)cn1 (2.5 µM) 0
C[C@@H]1COCCN1c1cc(C2([S@@](C)(=N)=O)CC2)nc(-c2ccnc3[nH]ccc23)n1 [(S)-Ceralasertib] (10 µM) 0

An excerpt of the results above:
kinase-Nluc reporter destabilization hit call, inactive:
COc1ncc(Cl)cc1S(=O)(=O)Nc1ccc(F)c(C#Cc2cnc(N)nc2)c1F (2.5 µM) 0
Cc1ccc(CNc2ncnc3ccc(-c4ccc(CO)o4)cc23)o1 (10 µM) 0

Source: the supplement of paper PMC12823440, “Inhibitors supercharge kinase turnover through native proteolytic circuits” (Nature, 2025)
